{
  "sequences": {"note": "Chains of the proteins cited; added tags and fusions are not shown. Lines headed by an entry give the natural chain unless they say otherwise; changes in a name come on top.", "UniProt Q9UNA4": "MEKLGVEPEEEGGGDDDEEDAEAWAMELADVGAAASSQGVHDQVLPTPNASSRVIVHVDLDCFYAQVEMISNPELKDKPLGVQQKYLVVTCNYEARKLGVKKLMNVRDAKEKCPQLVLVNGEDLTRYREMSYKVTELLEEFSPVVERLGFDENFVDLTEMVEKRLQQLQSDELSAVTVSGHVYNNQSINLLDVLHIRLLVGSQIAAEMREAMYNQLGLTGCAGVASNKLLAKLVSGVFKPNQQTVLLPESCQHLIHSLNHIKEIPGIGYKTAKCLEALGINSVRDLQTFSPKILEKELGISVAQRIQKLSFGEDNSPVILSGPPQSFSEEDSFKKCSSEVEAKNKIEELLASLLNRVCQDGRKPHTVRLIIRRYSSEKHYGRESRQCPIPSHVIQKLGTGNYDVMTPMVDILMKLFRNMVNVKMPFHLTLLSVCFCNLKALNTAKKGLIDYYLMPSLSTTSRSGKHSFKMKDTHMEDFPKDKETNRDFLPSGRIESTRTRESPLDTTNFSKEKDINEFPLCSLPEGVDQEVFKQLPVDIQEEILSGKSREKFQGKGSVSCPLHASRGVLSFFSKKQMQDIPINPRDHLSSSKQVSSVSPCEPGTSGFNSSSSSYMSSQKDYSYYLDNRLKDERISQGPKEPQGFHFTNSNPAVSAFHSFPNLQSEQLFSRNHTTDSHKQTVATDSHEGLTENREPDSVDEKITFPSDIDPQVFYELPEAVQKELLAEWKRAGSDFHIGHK", "UniProt Q9Y253": "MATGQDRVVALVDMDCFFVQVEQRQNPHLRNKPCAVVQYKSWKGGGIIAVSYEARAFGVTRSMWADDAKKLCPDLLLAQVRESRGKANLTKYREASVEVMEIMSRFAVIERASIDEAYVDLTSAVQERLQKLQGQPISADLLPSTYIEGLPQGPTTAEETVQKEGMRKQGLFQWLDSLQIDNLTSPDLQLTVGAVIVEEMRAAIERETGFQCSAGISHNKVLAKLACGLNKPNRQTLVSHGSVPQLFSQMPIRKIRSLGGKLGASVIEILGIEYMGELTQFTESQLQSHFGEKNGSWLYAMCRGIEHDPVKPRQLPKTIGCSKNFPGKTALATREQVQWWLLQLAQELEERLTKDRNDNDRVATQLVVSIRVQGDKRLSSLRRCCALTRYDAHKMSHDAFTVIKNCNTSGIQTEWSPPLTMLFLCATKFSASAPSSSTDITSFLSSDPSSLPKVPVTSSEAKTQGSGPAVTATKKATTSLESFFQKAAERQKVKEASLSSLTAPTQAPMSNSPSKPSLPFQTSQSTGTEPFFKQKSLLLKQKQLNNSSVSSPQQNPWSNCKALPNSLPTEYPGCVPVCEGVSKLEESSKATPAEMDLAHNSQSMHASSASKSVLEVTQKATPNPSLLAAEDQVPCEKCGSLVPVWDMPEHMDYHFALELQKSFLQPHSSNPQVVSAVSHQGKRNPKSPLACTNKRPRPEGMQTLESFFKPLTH"},
  "source": "PubChem BioAssay (NCATS)",
  "key": {"[1]": {"target": "DNA polymerase iota (Homo sapiens) (UniProt Q9UNA4)", "assay": "qHTS for Inhibitors of Polymerase Iota: Confirmatory Assay for Cherry-picked Compounds (AID 720496); also: potency is read from the fitted curve at half-maximal effect", "settings": "Pol iota primer extension, TAMRA/BHQ fluorescence", "method_in_brief": "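Using TAMRA dequenching as read-out, activity of 10 nM human Pol iota on 50 nM (final) primer/reporter/template substrate was tracked from 0 to 10 min, following a 15 min room-temperature compound preincubation.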"}, "[2]": {"assay": "qHTS for Inhibitors of WRN Helicase: Thiazole Orange DNA Binding Counterscreen (AID 720499);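 also: drop in dye fluorescence marks compound binding to DNA; % is scaled to controls: 0 for no effect and ±100 for the full control effect; nearly all actives have a fitted effect of over 60% in size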", "settings": "thiazole orange DNA binding displacement, fluorescence; series mostly up to 57.1 µM", "method_in_brief": "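Unlabeled DNA at 50 nM is mixed with 100 nM thiazole orange, compounds are pin-transferred in, the plate sits 15 min at room temperature, and fluorescence is then read at 480 nm excitation, 530 nm emission.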"}, "[3]": {"target": "DNA polymerase eta (Homo sapiens) (UniProt Q9Y253)", "assay": "qHTS for Inhibitors of Polymerase Eta: Confirmatory Assay for Cherry-picked Compounds (AID 720502); also: potency is read from the fitted curve at half-maximal effect", "settings": "Pol eta primer extension, TAMRA/BHQ fluorescence, 10 min", "method_in_brief": "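Strand-displacement fluorescence (525 nm excitation, 598 nm emission) was read kinetically at 0 and 10 min after adding 50 nM final TAMRA-reporter/BHQ-2-template substrate. Beforehand, 10 nM Pol eta had been exposed to compound for 15 min at room temperature.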"}, "[4]": {"assay": "qHTS Assay for Inhibitors of Fructose-1,6-bisphosphate Aldolase from Giardia Lamblia: Giardia lamblia growth inhibition (AID 2785); also: nearly all actives have a fitted effect of over 70% in size; also: potency is read from the fitted curve at half-maximal effect; as to activity change, negative = inhibition: % is scaled to controls: 0 for no effect and ±100 for the full control effect", "settings": "Giardia lamblia trophozoite growth inhibition; activity change, negative = inhibition: at 57.5 µM (top of the series)", "method_in_brief": "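G. lamblia WB trophozoites (100 cells/well) in modified TYI-S-33 medium, pH 7.0, were exposed to pin-transferred compounds or DMSO for 48 h at 37C in sealed bags. Viability was read as ATPlite luminescence after 20 min at room temperature.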"}, "[5]": {"assay": "qHTS Assay for Inhibitors of Fructose-1,6-bisphosphate Aldolase from Giardia Lamblia: Mammalian cellular toxicity (AID 2786);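 also: compound exposure lasted 48 h before reading; nearly all actives have a fitted effect of over 60% in size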; also: potency is read from the fitted curve at half-maximal effect", "settings": "mammalian cell viability counter-screen; series mostly up to 57.5 µM", "method_in_brief": "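Chinese hamster ovary cells (250/well, DMEM with 10% FBS and penicillin/streptomycin) were exposed to compounds for 48 h at 37 °C, 5% CO2. Viability was taken as cellular ATP content, read with ATPlite reagent after 20 min.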"}},
  "note": "The shares of active, inactive and inconclusive entries below differ from those in the screen. For part of these data: Potencies of inconclusive entries are doubtful fits and often do not repeat. Active and inactive are the calls of the source. Calls follow the shape of the dose curve; as a rule, active = well fitted curve in the direction sought with a large enough effect; inconclusive = small, poorly fitted or top-dose-only effect, or another doubt; inactive = no such curve, though single readings can be large; an effect the other way counts as inactive or inconclusive.",
  "data": [
    {"smiles": "O=C1CCCC2=C1C(c1ccco1)Nc1ccc3ccccc3c12", "note": "(centres undefined)", "values": [
      {"measurement": "Potency", "setting": "[1]", "value": "active: 7.52 µM"}
    ]},
    {"smiles": "N#Cc1ccccc1CN1C(=O)S/C(=C/c2cccn2-c2cccc(C(=O)O)c2)C1=O", "values": [
      {"measurement": "Potency", "setting": "[2]", "value": "inactive"},
      {"measurement": "Potency", "setting": "[3]", "value": "active: 60.1 µM"}
    ]},
    {"smiles": "COc1cc(O)cc2cc3c(c(O)c12)C(=O)CC(C)(O)O3", "note": "(centres undefined)", "values": [
      {"measurement": "Potency", "setting": "[3]", "value": "inconclusive: 84.9 µM [inhibitor, single point]"}
    ]},
    {"smiles": "COc1ccc2[nH]c(=S)[nH]c2c1", "values": [
      {"measurement": "activity change, negative = inhibition", "setting": "[4]", "value": "inactive: 2.39% [at 10.4 µM]"},
      {"measurement": "Potency", "setting": "[5]", "value": "inactive"}
    ]},
    {"smiles": "Cc1nn(-c2ccccc2)c(C)c1/C=N/Nc1nc2ccccc2[nH]1", "values": [
      {"measurement": "Potency", "setting": "[4]", "value": "active: 14.1 µM"},
      {"measurement": "Potency", "setting": "[5]", "value": "active: 25.1 µM"}
    ]},
    {"smiles": "O=C(CSC(=S)N1CCCC1)c1cc(Br)cc(Br)c1O", "values": [
      {"measurement": "Potency", "setting": "[4]", "value": "inconclusive: 31.6 µM [inhibitor, single point]"},
      {"measurement": "Potency", "setting": "[5]", "value": "active: 25.1 µM"}
    ]},
    {"smiles": "O=C(Nc1nc(-c2ccccn2)cs1)c1ccco1", "values": [
      {"measurement": "Potency", "setting": "[4]", "value": "inconclusive: 44.7 µM [inhibitor, partial curve, poor fit]"},
      {"measurement": "Potency", "setting": "[5]", "value": "active: 39.8 µM"}
    ]},
    {"smiles": "CC(=O)c1ccc(NC(=S)NC(=O)c2c(Cl)c(C)nn2C)cc1", "values": [
      {"measurement": "Potency", "setting": "[4]", "value": "inconclusive: 7.08 µM [inhibitor, single point]"}
    ]},
    {"smiles": "CCc1nnc(NC(=O)CN2CCN(Cc3cccc(OC)c3)CC2)s1", "values": [
      {"measurement": "activity change, negative = inhibition", "setting": "[4]", "value": "inconclusive: 103% [activator]"}
    ]},
    {"smiles": "Cc1ccc(OCCCn2ccnc2)c(Br)c1", "values": [
      {"measurement": "activity change, negative = inhibition", "setting": "[4]", "value": "inactive: -8.49% [at 10.4 µM]"}
    ]},
    {"smiles": "OC(CNc1ccccc1)Cn1ccc2ccccc21", "note": "(centres undefined)", "values": [
      {"measurement": "Potency", "setting": "[4]", "value": "inconclusive: 50.1 µM [inhibitor, single point]"}
    ]},
    {"smiles": "CCN(CC(=O)NCc1ccccc1Cl)CC(=O)Nc1c(F)cccc1F", "values": [
      {"measurement": "Potency", "setting": "[4]", "value": "inactive"}
    ]},
    {"smiles": "O=C(CSc1n[nH]c(-c2cccnc2)n1)Nc1ccc(Br)cc1", "values": [
      {"measurement": "activity change, negative = inhibition", "setting": "[4]", "value": "inconclusive: 59% [activator]"},
      {"measurement": "Potency", "setting": "[5]", "value": "inactive"}
    ]},
    {"smiles": "CC(C)OC(=O)Nc1ccc2c(c1)N(C(=O)N1CCN(C)CC1)c1ccccc1CC2", "values": [
      {"measurement": "Potency", "setting": "[4]", "value": "active: 8.91 µM"},
      {"measurement": "Potency", "setting": "[5]", "value": "active: 1.78 µM"}
    ]},
    {"smiles": "Cc1ccccc1C(=O)Nc1nnc(-c2cccnc2)o1", "values": [
      {"measurement": "Potency", "setting": "[4]", "value": "inconclusive: 20 µM [inhibitor, partial curve, poor fit]"},
      {"measurement": "Potency", "setting": "[5]", "value": "inactive"}
    ]},
    {"smiles": "O=C(N/N=C/c1ccccn1)c1cc(-c2ccccc2)nc2ccccc12", "values": [
      {"measurement": "Potency", "setting": "[4]", "value": "inactive"},
      {"measurement": "Potency", "setting": "[5]", "value": "inconclusive: 39.8 µM [inhibitor, single point]"}
    ]},
    {"smiles": "COc1c(O)ccc(/C=C(\\C#N)c2nc3ccccc3[nH]2)c1[N+](=O)[O-]", "values": [
      {"measurement": "Potency", "setting": "[4]", "value": "inconclusive: 31.6 µM [inhibitor, single point]"}
    ]},
    {"smiles": "CC1=NN(c2nc3ccccc3[nH]2)C(=O)/C1=C/N(C)C", "values": [
      {"measurement": "Potency", "setting": "[4]", "value": "active: 39.8 µM"},
      {"measurement": "Potency", "setting": "[5]", "value": "active: 4.47 µM"}
    ]},
    {"smiles": "COc1ccc(OCCN(C)CC(=O)Nc2c(C)cccc2C)cc1", "values": [
      {"measurement": "activity change, negative = inhibition", "setting": "[4]", "value": "inactive: -9.62% [at 10.4 µM]"},
      {"measurement": "Potency", "setting": "[5]", "value": "inactive"}
    ]},
    {"smiles": "Cc1nnc(N/N=C/c2c(Cl)cccc2Cl)n1N", "values": [
      {"measurement": "Potency", "setting": "[4]", "value": "inactive"}
    ]},
    {"smiles": "O=C(CSc1n[nH]c(-c2cccnc2)n1)Nc1ccccc1[N+](=O)[O-]", "values": [
      {"measurement": "Potency", "setting": "[4]", "value": "inconclusive: 25.1 µM [inhibitor, partial curve, poor fit]"}
    ]},
    {"smiles": "CC(=O)N1CCN(Cc2nc3cc(NC(=O)COc4cccc(C)c4)ccc3n2C)CC1", "values": [
      {"measurement": "Potency", "setting": "[4]", "value": "inconclusive: 7.08 µM [inhibitor, single point]"}
    ]},
    {"smiles": "Cc1cc(SCNC(=O)c2ccccc2)ncn1", "values": [
      {"measurement": "activity change, negative = inhibition", "setting": "[4]", "value": "inconclusive: 52.9% [activator]"}
    ]},
    {"smiles": "CCOC(=O)Cc1csc(NC(=S)NC(=O)c2cccc([N+](=O)[O-])c2)n1", "values": [
      {"measurement": "Potency", "setting": "[4]", "value": "inconclusive: 25.1 µM [inhibitor, partial curve, poor fit]"}
    ]},
    {"smiles": "CO/N=C/C(C#N)c1ncc(C(F)(F)F)cc1Cl", "note": "(centres undefined)", "values": [
      {"measurement": "Potency", "setting": "[4]", "value": "inconclusive: 79.4 µM [inhibitor, partial curve, poor fit]"}
    ]},
    {"smiles": "Cc1nc(NC(=S)NC(=O)c2ccccc2)sc1C", "values": [
      {"measurement": "Potency", "setting": "[4]", "value": "inconclusive: 31.6 µM [inhibitor, partial curve, poor fit]"},
      {"measurement": "Potency", "setting": "[5]", "value": "inconclusive: 50.1 µM [inhibitor, partial curve]"}
    ]},
    {"smiles": "NNc1nc2c(-c3ccc(Cl)cc3)nnn2c2ccccc12", "values": [
      {"measurement": "activity change, negative = inhibition", "setting": "[4]", "value": "inconclusive: 51.8% [activator]"},
      {"measurement": "Potency", "setting": "[5]", "value": "inconclusive: 63.1 µM [inhibitor, single point]"}
    ]},
    {"smiles": "O=c1cnnc(N/N=C/C2CC=CCC2)[nH]1", "note": "(centres undefined)", "values": [
      {"measurement": "Potency", "setting": "[4]", "value": "inconclusive: 11.2 µM [inhibitor, partial curve]"}
    ]},
    {"smiles": "O=C(N/N=C/c1ccccn1)c1cc([N+](=O)[O-])cc([N+](=O)[O-])c1", "values": [
      {"measurement": "Potency", "setting": "[4]", "value": "active: 25.1 µM"},
      {"measurement": "Potency", "setting": "[5]", "value": "inconclusive: 79.4 µM [inhibitor, single point]"}
    ]},
    {"smiles": "Cc1onc(-c2c(Cl)cccc2Cl)c1C(=O)NC(=S)N1CCOCC1", "values": [
      {"measurement": "Potency", "setting": "[4]", "value": "inactive"},
      {"measurement": "Potency", "setting": "[5]", "value": "inconclusive: 39.8 µM [inhibitor, single point]"}
    ]},
    {"smiles": "O=C(NC(=S)Nc1nc2ccccc2s1)c1ccco1", "values": [
      {"measurement": "Potency", "setting": "[4]", "value": "active: 7.94 µM"},
      {"measurement": "Potency", "setting": "[5]", "value": "inconclusive: 79.4 µM [inhibitor, single point]"}
    ]},
    {"smiles": "CC1=NN(c2ccccc2)C(=O)C1N=Nc1cccc(O)c1", "note": "(centres undefined)", "values": [
      {"measurement": "Potency", "setting": "[4]", "value": "inconclusive: 39.8 µM [inhibitor, single point]"}
    ]},
    {"smiles": "CCOc1ccc(CN2CCN(S(=O)(=O)c3ccc(NC(C)=O)cc3)CC2)cc1", "values": [
      {"measurement": "Potency", "setting": "[4]", "value": "inconclusive: 3.98 µM [inhibitor, single point]"}
    ]},
    {"smiles": "COc1cccc(CN2CCN(Cc3cccc(Oc4ccccc4)c3)CC2)c1OC", "values": [
      {"measurement": "Potency", "setting": "[4]", "value": "inactive"},
      {"measurement": "Potency", "setting": "[5]", "value": "inconclusive: 79.4 µM [inhibitor, single point]"}
    ]},
    {"smiles": "O=C(O)CC/C(=N/Nc1ncc(C(F)(F)F)cc1Cl)C(=O)O", "values": [
      {"measurement": "Potency", "setting": "[4]", "value": "active: 15.8 µM"}
    ]},
    {"smiles": "CC1CCCCN1S(=O)(=O)c1ccc(C(=O)Nc2nnc(-c3ccncc3)o2)cc1", "note": "(centres undefined)", "values": [
      {"measurement": "Potency", "setting": "[4]", "value": "inconclusive: 50.1 µM [inhibitor, partial curve]"},
      {"measurement": "Potency", "setting": "[5]", "value": "inconclusive: 63.1 µM [inhibitor, single point]"}
    ]}
  ]
}
